According to paper doi:10.1101/2025.09.22.677739:
Results are given in words; binding and its absence hold for the method and conditions named. For some assays here: In cells and extracts the contact can be indirect. Some entries that bind do so weakly or less than the wild type. For some assays here: Where a sequence is shown, tags or fusion partners need not be part of it.

Tests used:
[1] = target: T1, YFP-tagged UVR8 (35S::YFP–UVR8 in uvr8-6) (Arabidopsis thaliana) (UniProt Q9FN03); experiment: co-IP
T1 sequence: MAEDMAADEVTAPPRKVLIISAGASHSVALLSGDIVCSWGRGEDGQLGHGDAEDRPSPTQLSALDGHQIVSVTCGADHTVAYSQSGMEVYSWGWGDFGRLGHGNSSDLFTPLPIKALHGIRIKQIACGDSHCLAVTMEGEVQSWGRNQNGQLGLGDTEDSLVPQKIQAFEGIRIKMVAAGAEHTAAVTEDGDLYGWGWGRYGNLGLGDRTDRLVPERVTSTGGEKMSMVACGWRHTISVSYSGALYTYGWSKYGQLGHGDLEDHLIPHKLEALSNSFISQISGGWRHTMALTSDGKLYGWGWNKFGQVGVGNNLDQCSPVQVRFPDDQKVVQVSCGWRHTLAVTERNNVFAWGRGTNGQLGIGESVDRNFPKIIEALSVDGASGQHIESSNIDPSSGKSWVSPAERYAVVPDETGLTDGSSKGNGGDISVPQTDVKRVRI

[2] = target: T2, CONSTITUTIVE PHOTOMORPHOGENIC 1 (COP1), yeast two-hybrid fusion (Arabidopsis thaliana) (UniProt P43254); experiment: two-hybrid
T2 sequence: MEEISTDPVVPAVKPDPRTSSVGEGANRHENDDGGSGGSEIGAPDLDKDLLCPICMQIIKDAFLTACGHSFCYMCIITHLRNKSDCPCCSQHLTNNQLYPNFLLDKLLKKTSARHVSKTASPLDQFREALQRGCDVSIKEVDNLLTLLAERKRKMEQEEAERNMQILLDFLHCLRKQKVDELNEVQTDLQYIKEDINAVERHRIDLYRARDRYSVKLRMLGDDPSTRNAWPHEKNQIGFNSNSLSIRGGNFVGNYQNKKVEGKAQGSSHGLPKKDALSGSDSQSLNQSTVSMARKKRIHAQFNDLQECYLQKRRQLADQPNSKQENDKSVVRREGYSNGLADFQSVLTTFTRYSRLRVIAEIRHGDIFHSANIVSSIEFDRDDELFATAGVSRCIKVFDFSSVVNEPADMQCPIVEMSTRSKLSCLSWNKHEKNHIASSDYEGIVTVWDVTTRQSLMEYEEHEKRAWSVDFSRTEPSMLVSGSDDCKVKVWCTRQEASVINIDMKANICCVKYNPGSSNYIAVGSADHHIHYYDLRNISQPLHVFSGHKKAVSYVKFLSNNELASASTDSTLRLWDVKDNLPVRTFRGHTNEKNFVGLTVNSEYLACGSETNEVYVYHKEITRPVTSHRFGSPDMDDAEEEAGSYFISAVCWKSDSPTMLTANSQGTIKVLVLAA

[3] = target: T3, ELONGATED HYPOCOTYL 5 (HY5), yeast two-hybrid fusion (Arabidopsis thaliana) (UniProt O24646); experiment: two-hybrid
T3 sequence: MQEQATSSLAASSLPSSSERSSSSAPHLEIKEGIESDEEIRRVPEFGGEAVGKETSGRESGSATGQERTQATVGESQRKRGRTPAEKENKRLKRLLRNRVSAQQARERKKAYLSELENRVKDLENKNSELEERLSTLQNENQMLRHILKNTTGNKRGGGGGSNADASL

[4] = target: T4, COP1 in the co-immunoprecipitation with HOS1 (Supplementary Fig. 4,5) (Arabidopsis thaliana) (UniProt P43254); experiment: co-IP
T4 sequence: T2 sequence

[5] = target: T5, HY5 in the co-immunoprecipitation with HOS1 (Supplementary Fig. 4,5) (Arabidopsis thaliana) (UniProt O24646); experiment: co-IP
T5 sequence: T3 sequence

B1: HOS1, endogenous in Arabidopsis seedlings (protein, UniProt Q84JU6 1-927)
chain: MDTREINGFASAARSISLPTQPNYSSKPVQEALKHLASINLRELCNEAKVERCRATRDLASCGRFVNYVLNPCGHASLCTECCQRCDVCPICRSTLPKFGDRLRLRLYYECVEAGLISRTHEEASQDSDEDEHQLAADVHRLYSLFDVAMNNNLISVVCHYITNVCMDETAVSSDPVIAFLLDEVVVKDWVKRTFRSTLAELQEIYNLETKEMQAWLDKLLRCSKQVAGICSVLEVMESAFKGSVSPQLQDVQTLRENIGKTKQHLDIMVWCIRHGFLDDVRSRYSNFTSWNALVGERKSNAVKRAWPDAVDQSSDCSVQSASLFIEDALENLEREPEYSQEIGADLEVGRLQKDKRSFLRSKIEGTSGSYPFENLRTAADMLFLHGGSDLVVAKQAIFLYYLFDRHWTTPEKYWKHTIDDFAATFGITRHSLLESFVFYLLDDHSEEALQEACRILPEICGPETYPKVAQVLLERDNPETALMVLRWSGRDGVSELVSIGEAVTALRVRVECGLLSEAFTYQRTLCLKVKENNLKNGAVKHASDDLDIWSWTEWMEILVNEFCCLSIRRNLVDRIIELPWNPDEEKYLHRCLLDSATDDPSSAVGSLLVVFYLQRYRYIQAYQVDLRLQKIEEAFVSDNQIGEEVMFRMRSQSHWRKELVDRAIDILPVIQQQQVRSGQFSEMEDASEGAKKSDLPDAPDMITSSVPFATTNSVFLQSANNARAREPVANNGSPFQPGHMIGNASHDLSHGRLFTNANRGQKSEVRSVTKNLKFGEMSTPFKDLNRARGNSQLQGKRTEESSPEVNVDRYIENNMSSPYLRRITANNPVTVKSSSNHLNGSSQKPESTFFGTRMQPDKDNFVDLDDPMDMSSSLKDNNNNVLATESRNNSGGLRWRSDETSDDEDELTSFGSMPVKGRRRRRFAAR
[1]
  binding: binds

B2: HIGH EXPRESSION OF OSMOTICALLY RESPONSIVE GENES 1 (HOS1), yeast two-hybrid fusion (protein, UniProt Q84JU6 1-927)
chain: B1 chain
[2]
  binding: no binding
[3]
  binding: no binding

B3: HOS1 in the co-immunoprecipitation with HY5 and COP1 (Supplementary Fig. 4,5) (protein, UniProt Q84JU6 1-927)
chain: B1 chain
[4]
  binding: no binding
[5]
  binding: no binding
